For one test, the target named is CFP-TRIM32 (human) (UniProt Q13049). Briefly: sorting of fluorescent cytoplasmic bodies with a cell sorter, then LC-MS/MS; HEK293 cells transfected with CFP-TRIM32, lysed in buffer with 1% Triton X-100 and 150 mM NaCl, sonicated; particles sorted by CFP, FSC and BSC gates (larger than 1.5 um); 10,000 particles solubilised, digested with trypsin, LC-MS/MS; control: naive HEK293 cells; hits with ratio >2 over the control.

Test [1] deals with CFP-TRIM32 (human), Q13049. The description is as above. Conditions: remark: other sources report otherwise.

No constants are given. Whether binding was seen depends on the method and setting. For some assays here: Tags and fused reporters may be left off the sequences shown.

B1: NDP52 (protein, UniProt Q13137 1-446)
chain: MEETIKDPPTSAVLLDHCHFSQVIFNSVEKFYIPGGDVTCHYTFTQHFIPRRKDWIGIFRVGWKTTREYYTFMWVTLPIDLNNKSAKQQEVQFKAYYLPKDDEYYQFCYVDEDGVVRGASIPFQFRPENEEDILVVTTQGEVEEIEQHNKELCKENQELKDSCISLQKQNSDMQAELQKKQEELETLQSINKKLELKVKEQKDYWETELLQLKEQNQKMSSENEKMGIRVDQLQAQLSTQEKEMEKLVQGDQDKTEQLEQLKKENDHLFLSLTEQRKDQKKLEQTVEQMKQNETTAMKKQQELMDENFDLSKRLSENEIICNALQRQKERLEGENDLLKRENSRLLSYMGLDFNSLPYQVPTSDEGGARQNPGLAYGNPYSGIQESSSPSPLSIKKCPICKADDICDHTLEQQQMQPLCFNCPICDKIFPATEKQIFEDHVFCHSL
With B1, in the test with CFP-TRIM32 (human), the binding result is “no binding”.

B2: NBR1, Q14596 1-966 (protein)
chain: MEPQVTLNVTFKNEIQSFLVSDPENTTWADIEAMVKVSFDLNTIQIKYLDEENEEVSINSQGEYEEALKMAVKQGNQLQMQVHEGHHVVDEAPPPVVGAKRLAARAGKKPLAHYSSLVRVLGSDMKTPEDPAVQSFPLVPCDTDQPQDKPPDWFTSYLETFREQVVNETVEKLEQKLHEKLVLQNPSLGSCPSEVSMPTSEETLFLPENQFSWHIACNNCQRRIVGVRYQCSLCPSYNICEDCEAGPYGHDTNHVLLKLRRPVVGSSEPFCHSKYSTPRLPAALEQVRLQKQVDKNFLKAEKQRLRAEKKQRKAEVKELKKQLKLHRKIHLWNSIHGLQSPKSPLGRPESLLQSNTLMLPLQPCTSVMPMLSAAFVDENLPDGTHLQPGTKFIKHWRMKNTGNVKWSADTKLKFMWGNLTLASTEKKDVLVPCLKAGHVGVVSVEFIAPALEGTYTSHWRLSHKGQQFGPRVWCSIIVDPFPSEESPDNIEKGMISSSKTDDLTCQQEETFLLAKEERQLGEVTEQTEGTAACIPQKAKNVASERELYIPSVDLLTAQDLLSFELLDINIVQELERVPHNTPVDVTPCMSPLPHDSPLIEKPGLGQIEEENEGAGFKALPDSMVSVKRKAENIASVEEAEEDLSGTQFVCETVIRSLTLDAAPDHNPPCRQKSLQMTFALPEGPLGNEKEEIIHIAEEEAVMEEEEDEEDEEEEDELKDEVQSQSSASSEDYIIILPECFDTSRPLGDSMYSSALSQPGLERGAEGKPGVEAGQEPAEAGERLPGGENQPQEHSISDILTTSQTLETVPLIPEVVELPPSLPRSSPCVHHHGSPGVDLPVTIPEVSSVPDQIRGEPRGSSGLVNSRQKSYDHSRHHHGSSIAGGLVKGALSVAASAYKALFAGPPVTAQPIISEDQTAALMAHLFEMGFCDRQLNLRLLKKHNYNILQVVTELLQLNNNDWYSQRY
In the case of B2, the binding result in test [1] is recorded as “no binding”.
